Measurements published in article PMC7206739.
Results are given in words; binding and its absence hold for the method and conditions named. Binding seen in cells or lysates may run through a third protein. Some entries that bind do so weakly or less than the wild type. Sequences can lack the tags named with a protein.

Protein sequences, listed by entry. Tags and fused reporters are not part of them.
UniProt Q9UNS2: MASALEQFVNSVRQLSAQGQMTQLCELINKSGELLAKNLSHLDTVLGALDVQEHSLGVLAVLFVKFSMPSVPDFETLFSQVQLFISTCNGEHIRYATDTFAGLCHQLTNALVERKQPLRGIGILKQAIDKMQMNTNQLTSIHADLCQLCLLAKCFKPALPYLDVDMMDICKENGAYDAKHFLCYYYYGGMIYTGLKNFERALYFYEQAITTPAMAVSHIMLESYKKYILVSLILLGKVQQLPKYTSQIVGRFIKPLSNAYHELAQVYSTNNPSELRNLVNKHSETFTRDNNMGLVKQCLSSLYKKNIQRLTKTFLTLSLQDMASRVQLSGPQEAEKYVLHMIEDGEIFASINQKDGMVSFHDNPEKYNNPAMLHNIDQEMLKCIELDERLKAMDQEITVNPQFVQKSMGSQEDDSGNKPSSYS

Biological target: T1, HA-tagged mouse NSMCE4A (mouse) (UniProt G3XA30)
T1 sequence: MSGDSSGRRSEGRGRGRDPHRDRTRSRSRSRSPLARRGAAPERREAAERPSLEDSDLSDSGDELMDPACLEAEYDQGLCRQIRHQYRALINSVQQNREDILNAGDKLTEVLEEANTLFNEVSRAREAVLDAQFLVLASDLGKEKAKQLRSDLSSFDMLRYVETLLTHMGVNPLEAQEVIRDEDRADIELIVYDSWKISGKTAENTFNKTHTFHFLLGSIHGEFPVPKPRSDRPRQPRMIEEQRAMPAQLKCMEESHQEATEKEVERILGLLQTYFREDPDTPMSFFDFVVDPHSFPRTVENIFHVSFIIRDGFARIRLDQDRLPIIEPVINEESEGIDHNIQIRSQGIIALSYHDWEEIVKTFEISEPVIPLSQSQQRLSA
Assay: co-IP; FLAG-tagged GPS1 and HA-tagged NSMCE4A expressed or co-expressed in HEK 293T cells; anti-FLAG or anti-HA antibody coupled to Dynabeads; lysis buffer with 100 mM NaCl, 1 mM DTT; western blot

- binding: binds
Substance: CSN3 (from UniProt Q9UNS2 1-423)
